Some of the results follow.
compound: C[C@H](Nc1ncnc2nc[nH]c12)c1cc2cccc(Cl)c2c(=O)n1-c1ccccc1 [duvelisib]; test: log2 fold change, soluble protein after heating vs DMSO (PISA); higher = thermal stabilisation; K562 lysate, 10 uM; active = over 0.2 and 3.5 SD of the protein, either way, in both replicates (recomputed)
Summary of the method: (§1)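 Soluble protein was defined as the supernatant remaining after 21,000xg for 90 min, following pooling of heated aliquots and adjustment to 0.5% NP-40 at 4°C. Before that, crude K562 extract at 1 mg/mL protein in PBS pH 7.4 with 1 mM MgCl2 was treated with 10 μM compound for 30 min and heated for 3 min across 48°C-58°C. Quantification used TMTpro 16plex LC-MS/MS with channel sums equalised, and values are log-two fold changes in thermal stability relative to solvent controls from duplicates.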

The chains behind the UniProt entries cited, without tags or fusion partners. Where a name states a change or a piece, a line headed by the entry shows the natural chain unless it says otherwise.
UniProt Q7Z4S6: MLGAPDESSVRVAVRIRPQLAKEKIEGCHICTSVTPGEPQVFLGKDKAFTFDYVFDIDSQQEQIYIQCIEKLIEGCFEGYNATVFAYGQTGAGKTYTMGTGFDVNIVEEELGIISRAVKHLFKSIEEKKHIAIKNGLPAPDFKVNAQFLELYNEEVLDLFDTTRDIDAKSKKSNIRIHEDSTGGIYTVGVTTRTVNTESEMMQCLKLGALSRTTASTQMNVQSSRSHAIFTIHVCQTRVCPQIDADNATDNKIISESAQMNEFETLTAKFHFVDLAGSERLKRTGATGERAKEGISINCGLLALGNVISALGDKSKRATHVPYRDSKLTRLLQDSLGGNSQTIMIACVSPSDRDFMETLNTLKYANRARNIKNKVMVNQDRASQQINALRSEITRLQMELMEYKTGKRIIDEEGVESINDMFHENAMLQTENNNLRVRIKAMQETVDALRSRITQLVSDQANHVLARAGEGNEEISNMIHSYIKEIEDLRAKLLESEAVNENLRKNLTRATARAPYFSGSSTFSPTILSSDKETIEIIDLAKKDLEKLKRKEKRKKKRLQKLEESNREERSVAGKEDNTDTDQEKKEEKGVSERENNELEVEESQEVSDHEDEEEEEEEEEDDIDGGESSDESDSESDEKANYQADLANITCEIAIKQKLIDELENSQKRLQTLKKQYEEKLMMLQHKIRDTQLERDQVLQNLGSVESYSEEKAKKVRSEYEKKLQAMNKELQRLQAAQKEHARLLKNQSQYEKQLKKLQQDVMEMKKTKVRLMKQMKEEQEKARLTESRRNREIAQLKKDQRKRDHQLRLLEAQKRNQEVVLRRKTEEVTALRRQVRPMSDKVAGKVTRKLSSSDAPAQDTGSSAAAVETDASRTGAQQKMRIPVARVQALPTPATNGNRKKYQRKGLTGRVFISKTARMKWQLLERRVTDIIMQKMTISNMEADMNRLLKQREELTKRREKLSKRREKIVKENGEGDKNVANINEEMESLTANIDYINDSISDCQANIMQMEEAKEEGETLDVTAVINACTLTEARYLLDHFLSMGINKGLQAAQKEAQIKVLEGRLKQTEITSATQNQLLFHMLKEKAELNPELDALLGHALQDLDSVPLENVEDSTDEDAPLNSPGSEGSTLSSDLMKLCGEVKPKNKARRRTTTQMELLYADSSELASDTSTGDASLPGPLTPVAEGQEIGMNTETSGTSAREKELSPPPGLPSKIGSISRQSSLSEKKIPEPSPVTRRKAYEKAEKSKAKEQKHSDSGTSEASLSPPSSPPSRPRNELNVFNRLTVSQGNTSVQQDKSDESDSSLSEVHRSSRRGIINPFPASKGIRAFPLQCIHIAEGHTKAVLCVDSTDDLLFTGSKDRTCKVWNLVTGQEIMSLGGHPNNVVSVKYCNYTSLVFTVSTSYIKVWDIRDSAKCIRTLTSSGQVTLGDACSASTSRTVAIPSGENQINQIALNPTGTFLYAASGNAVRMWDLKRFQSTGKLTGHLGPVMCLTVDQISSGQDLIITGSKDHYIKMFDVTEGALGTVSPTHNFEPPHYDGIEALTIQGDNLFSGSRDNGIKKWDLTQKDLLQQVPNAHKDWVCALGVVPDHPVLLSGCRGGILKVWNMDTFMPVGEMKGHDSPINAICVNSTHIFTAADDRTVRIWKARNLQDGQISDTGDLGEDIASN
UniProt O95239: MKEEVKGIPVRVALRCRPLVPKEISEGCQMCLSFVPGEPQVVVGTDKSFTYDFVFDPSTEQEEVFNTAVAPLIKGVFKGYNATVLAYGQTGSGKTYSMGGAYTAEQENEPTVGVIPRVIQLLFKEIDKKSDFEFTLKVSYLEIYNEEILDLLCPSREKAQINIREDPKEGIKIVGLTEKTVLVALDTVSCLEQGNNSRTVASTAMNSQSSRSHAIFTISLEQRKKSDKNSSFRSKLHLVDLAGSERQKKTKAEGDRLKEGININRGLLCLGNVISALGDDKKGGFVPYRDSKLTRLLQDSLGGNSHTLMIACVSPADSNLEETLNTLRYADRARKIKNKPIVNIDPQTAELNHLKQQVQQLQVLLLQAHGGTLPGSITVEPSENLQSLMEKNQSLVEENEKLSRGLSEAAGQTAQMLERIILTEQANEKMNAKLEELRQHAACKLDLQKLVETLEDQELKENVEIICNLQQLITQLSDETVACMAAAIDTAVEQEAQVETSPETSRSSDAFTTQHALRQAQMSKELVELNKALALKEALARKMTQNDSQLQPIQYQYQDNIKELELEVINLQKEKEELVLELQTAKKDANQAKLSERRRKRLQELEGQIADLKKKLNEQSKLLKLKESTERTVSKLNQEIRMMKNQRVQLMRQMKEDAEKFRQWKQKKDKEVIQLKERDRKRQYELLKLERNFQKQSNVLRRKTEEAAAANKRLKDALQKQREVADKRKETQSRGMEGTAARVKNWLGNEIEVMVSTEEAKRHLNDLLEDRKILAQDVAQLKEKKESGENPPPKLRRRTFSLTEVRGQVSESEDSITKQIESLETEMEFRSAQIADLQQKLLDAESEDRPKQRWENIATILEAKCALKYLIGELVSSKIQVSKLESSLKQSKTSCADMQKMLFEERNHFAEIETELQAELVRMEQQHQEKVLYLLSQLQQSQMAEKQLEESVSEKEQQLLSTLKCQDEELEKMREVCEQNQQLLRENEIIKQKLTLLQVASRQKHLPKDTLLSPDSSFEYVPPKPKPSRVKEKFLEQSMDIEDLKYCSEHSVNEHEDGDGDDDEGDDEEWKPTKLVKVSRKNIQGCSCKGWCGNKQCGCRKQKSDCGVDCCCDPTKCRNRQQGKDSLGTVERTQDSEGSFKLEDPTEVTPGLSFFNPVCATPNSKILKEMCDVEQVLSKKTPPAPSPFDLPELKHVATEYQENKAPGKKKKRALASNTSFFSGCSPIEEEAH
UniProt Q9Y448: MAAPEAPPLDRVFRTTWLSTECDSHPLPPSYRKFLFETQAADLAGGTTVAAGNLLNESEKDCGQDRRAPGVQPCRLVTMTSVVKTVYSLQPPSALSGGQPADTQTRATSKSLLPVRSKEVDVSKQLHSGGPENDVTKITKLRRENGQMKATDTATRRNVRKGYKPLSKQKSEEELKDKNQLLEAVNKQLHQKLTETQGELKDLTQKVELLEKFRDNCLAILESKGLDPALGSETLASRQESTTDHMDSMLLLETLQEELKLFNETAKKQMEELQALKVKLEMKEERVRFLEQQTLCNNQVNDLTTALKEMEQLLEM
UniProt Q9BXK1: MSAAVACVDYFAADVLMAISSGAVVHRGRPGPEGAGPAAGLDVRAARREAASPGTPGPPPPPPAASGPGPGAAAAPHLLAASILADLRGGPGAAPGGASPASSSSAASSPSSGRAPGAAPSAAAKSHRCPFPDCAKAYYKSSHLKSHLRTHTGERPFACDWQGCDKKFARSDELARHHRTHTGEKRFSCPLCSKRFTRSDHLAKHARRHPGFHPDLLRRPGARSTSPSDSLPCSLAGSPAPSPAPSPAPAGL
UniProt A8MWY0: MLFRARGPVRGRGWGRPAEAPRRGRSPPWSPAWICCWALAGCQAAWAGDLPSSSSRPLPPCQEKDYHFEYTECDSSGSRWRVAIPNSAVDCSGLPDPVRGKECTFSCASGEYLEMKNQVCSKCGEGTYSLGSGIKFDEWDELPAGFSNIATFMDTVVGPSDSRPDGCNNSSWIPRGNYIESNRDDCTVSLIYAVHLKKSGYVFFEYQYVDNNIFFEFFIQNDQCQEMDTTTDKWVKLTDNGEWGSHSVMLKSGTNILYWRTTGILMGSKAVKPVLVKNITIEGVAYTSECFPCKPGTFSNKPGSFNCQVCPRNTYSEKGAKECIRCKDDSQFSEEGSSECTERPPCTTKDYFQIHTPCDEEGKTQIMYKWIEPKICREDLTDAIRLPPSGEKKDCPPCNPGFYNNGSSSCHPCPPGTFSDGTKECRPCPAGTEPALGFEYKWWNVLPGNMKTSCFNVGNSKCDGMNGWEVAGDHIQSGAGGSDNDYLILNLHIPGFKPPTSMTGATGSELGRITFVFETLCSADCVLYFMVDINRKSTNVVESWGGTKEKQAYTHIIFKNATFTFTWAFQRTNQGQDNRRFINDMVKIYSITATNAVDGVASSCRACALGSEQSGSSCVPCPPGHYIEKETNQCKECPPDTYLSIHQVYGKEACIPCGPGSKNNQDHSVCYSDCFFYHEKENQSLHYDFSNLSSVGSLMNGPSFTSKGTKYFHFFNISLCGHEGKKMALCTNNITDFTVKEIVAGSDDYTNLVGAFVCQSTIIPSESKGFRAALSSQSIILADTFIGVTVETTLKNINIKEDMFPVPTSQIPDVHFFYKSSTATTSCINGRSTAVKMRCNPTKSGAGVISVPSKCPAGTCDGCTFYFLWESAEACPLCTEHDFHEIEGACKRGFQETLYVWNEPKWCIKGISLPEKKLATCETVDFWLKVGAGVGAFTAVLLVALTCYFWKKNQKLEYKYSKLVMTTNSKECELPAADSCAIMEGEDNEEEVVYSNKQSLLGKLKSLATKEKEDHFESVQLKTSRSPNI
UniProt P33176: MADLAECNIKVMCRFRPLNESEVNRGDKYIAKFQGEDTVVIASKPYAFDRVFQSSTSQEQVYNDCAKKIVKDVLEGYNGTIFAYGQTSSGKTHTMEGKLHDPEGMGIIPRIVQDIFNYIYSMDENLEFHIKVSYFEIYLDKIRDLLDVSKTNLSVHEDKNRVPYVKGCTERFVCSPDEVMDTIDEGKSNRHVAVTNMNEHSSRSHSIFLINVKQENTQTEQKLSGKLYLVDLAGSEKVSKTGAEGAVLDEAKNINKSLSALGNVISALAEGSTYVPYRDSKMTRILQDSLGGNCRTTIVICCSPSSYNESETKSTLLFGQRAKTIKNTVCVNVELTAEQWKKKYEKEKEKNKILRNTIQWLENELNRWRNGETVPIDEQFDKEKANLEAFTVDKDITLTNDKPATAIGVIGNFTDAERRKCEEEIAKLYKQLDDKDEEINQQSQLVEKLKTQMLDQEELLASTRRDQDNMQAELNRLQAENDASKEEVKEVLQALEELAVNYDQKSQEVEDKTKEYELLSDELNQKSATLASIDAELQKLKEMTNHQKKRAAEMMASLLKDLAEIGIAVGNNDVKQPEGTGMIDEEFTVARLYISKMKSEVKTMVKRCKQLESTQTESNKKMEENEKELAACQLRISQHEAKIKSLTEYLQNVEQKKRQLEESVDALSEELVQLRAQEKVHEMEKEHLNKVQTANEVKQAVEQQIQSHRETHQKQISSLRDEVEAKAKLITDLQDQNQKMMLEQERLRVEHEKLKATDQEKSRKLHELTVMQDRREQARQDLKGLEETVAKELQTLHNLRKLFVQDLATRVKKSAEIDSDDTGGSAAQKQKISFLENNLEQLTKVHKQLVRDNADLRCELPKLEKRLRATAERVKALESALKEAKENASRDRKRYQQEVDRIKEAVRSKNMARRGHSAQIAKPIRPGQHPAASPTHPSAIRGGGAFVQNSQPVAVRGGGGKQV
UniProt Q06136: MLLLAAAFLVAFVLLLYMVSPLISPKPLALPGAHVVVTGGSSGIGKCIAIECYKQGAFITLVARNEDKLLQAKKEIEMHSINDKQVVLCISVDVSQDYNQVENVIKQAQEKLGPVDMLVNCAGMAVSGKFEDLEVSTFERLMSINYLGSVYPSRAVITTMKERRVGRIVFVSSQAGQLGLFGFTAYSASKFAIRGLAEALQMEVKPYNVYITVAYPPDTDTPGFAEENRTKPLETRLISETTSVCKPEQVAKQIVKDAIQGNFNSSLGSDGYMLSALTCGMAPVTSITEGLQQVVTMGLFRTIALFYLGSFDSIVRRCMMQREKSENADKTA
UniProt Q9UHA4, whole entry, looked up: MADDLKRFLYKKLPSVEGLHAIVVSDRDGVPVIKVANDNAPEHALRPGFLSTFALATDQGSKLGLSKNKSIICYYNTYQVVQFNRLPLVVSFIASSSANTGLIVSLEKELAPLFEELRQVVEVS
UniProt P28838: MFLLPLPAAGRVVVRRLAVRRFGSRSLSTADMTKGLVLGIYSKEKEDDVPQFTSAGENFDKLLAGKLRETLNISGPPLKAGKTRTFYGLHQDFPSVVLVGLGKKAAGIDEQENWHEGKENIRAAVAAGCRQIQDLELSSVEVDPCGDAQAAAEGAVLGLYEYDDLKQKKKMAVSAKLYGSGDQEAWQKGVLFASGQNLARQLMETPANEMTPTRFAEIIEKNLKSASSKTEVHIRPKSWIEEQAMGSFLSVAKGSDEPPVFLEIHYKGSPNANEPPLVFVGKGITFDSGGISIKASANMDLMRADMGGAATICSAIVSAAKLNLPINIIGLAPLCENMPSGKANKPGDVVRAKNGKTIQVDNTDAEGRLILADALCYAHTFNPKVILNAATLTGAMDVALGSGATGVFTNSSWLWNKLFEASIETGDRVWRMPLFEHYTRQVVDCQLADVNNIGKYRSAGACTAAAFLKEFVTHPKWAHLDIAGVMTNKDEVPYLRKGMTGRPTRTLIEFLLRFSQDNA

log2 fold change, inactive:
KIF4B (UniProt Q2VIQ3) -0.023
KIF21A isoform 5 (UniProt Q7Z4S6) -0.032
KIF23 isoform 2 (UniProt Q02241) -0.019
KIF5A (UniProt Q12840) 0.021
KIF11 (UniProt P52732) 0.017
KNOP1 (UniProt Q1ED39) 0.022
KIAA0100 (UniProt Q14667) -0.017
KLHL36 (UniProt Q8N4N3) -0.02
KPNA2 (UniProt P52292) 0.011
LARP1 (UniProt Q6PKG0) 0
KYAT1 (UniProt Q16773) 0.036
KLHL20 (UniProt Q9Y2M5) -0.001
LAMP2 (UniProt P13473) 0.05
KIF4A (UniProt O95239) -0.029
KNSTRN (UniProt Q9Y448) -0.009
KLC4 isoform 3 (UniProt Q9NSK0) 0.029
KHK isoform 2 (UniProt P50053) 0
KLF16 (UniProt Q9BXK1) -0.029
KPTN (UniProt Q9Y664) -0.013
KIAA0319L (UniProt Q8IZA0) 0
KIF13A isoform 4 (UniProt Q9H1H9) 0
KIAA1324L (UniProt A8MWY0) -0.008
KMT2D isoform 3 (UniProt O14686) 0.034
KNTC1 (UniProt P50748) 0.002
KIN (UniProt O60870) -0.008
KIAA1522 isoform 2 (UniProt Q9P206) -0.016
KIAA1191 (UniProt Q96A73) -0.045
KPNA6 (UniProt O60684) 0.015
KIF5B (UniProt P33176) -0.031
KHDC4 (UniProt Q7Z7F0) -0.028
KDSR (UniProt Q06136) 0.028
KLC1 isoform 6 (UniProt Q07866) -0.031
LAMTOR4 (UniProt Q0VGL1) 0.013
LANCL1 (UniProt O43813) -0.001
LAMTOR3 (UniProt Q9UHA4) 0.023
LAP3 (UniProt P28838) 0.034
KIF15 (UniProt Q9NS87) -0.002
KEAP1 (UniProt Q14145) 0.026
KYAT3 (UniProt Q6YP21) 0.008

compound: Cc1cc(Nc2cc(CN3CCOCC3)c3nc(C)c(Cc4ccc(Cl)cc4F)n3n2)n[nH]1 [gandotinib]; test: as above
Summary of the method: as §1

log2 fold change, active:
LAP3 (UniProt P28838) 0.385

log2 fold change, inactive:
KIF4B (UniProt Q2VIQ3) -0.051
KIF21A isoform 5 (UniProt Q7Z4S6) -0.077
KIF23 isoform 2 (UniProt Q02241) -0.007
KIF5A (UniProt Q12840) -0.043
KIF11 (UniProt P52732) -0.042
KNOP1 (UniProt Q1ED39) 0.027
KIAA0100 (UniProt Q14667) -0.048
KLHL36 (UniProt Q8N4N3) -0.013
KPNA2 (UniProt P52292) -0.066
LARP1 (UniProt Q6PKG0) -0.05
KYAT1 (UniProt Q16773) 0.065
KLHL20 (UniProt Q9Y2M5) 0.055
LAMP2 (UniProt P13473) 0.08
KIF4A (UniProt O95239) -0.061
KNSTRN (UniProt Q9Y448) -0.024
KLC4 isoform 3 (UniProt Q9NSK0) -0.074
KHK isoform 2 (UniProt P50053) -0.058
KLF16 (UniProt Q9BXK1) 0.101
KPTN (UniProt Q9Y664) 0.077
KIAA0319L (UniProt Q8IZA0) -0.001
KIF13A isoform 4 (UniProt Q9H1H9) -0.024
KIAA1324L (UniProt A8MWY0) -0.005
KMT2D isoform 3 (UniProt O14686) -0.036
KNTC1 (UniProt P50748) -0.048
KIN (UniProt O60870) -0.032
KIAA1522 isoform 2 (UniProt Q9P206) -0.02
KIAA1191 (UniProt Q96A73) 0.017
KPNA6 (UniProt O60684) -0.092
KIF5B (UniProt P33176) -0.072
KHDC4 (UniProt Q7Z7F0) -0.018
KDSR (UniProt Q06136) 0.118
KLC1 isoform 6 (UniProt Q07866) -0.073
LAMTOR4 (UniProt Q0VGL1) 0.031
LANCL1 (UniProt O43813) 0
LAMTOR3 (UniProt Q9UHA4) 0.066
KIF15 (UniProt Q9NS87) -0.017
KEAP1 (UniProt Q14145) 0.019
KYAT3 (UniProt Q6YP21) 0.084
